# Assay results: PubChem BioAssay AID652054 (National Center for Advancing Translational Sciences (NCATS), 2013)
# The chains behind the UniProt entries cited, without tags or fusion partners.
# UniProt P35462, whole entry, looked up: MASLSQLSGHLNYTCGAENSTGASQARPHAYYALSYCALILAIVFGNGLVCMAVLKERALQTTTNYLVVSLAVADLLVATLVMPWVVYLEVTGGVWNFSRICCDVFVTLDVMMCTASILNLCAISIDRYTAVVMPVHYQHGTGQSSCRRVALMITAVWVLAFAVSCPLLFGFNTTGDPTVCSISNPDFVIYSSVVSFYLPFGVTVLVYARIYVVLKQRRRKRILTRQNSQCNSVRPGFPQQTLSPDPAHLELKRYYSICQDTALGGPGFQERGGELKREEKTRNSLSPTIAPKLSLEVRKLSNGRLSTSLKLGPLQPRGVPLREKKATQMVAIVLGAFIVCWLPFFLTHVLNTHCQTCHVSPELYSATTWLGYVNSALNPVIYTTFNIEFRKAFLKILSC
# Screen size: about 360,000 compounds; about 9,100 (2.5%) were called active. Inconclusive means that the source gave no clear call. Such entries were picked first, then a sample of the others. No stated cut-off is given here; in the data, active means max response below about -50%; inconclusive means no clear call, values can overlap the other calls; inactive means above that.
# Biological target: D(3) dopamine receptor (Homo sapiens) (UniProt P35462)
# Assay: qHTS of D3 Dopamine Receptor Antagonist: qHTS
# Conditions: D3R cells, DiscoveRx beta-arrestin luminescence, antagonist mode; stronger effect = lower value
# Procedure, shortened: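 Cells plated overnight at 1500 cells/well, then exposed to library compounds with dopamine controls for 90 minutes at 37 degrees C. DiscoveRx reagent added for 30–60 minutes at room temperature; luminescence read, quantitative HTS format.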
# On the % scale 0 is the no-effect control and ±100 the full control effect.
row,Compound,"max response, negative = inhibition"
1,CCCN1CCC(CCOc2ccccc2)(C(=O)OCC)CC1,inconclusive: -39.5%
2,COC(=O)c1c(-c2ccncc2)csc1NC(=O)c1ccoc1C,inactive: 26.8%
3,CCOc1ccc(C2NC(=O)C(C#N)=C(S)N2c2cccc(C)c2)cc1OC (stereo not given),inactive: 1.14%
4,CCOC(=O)C1(C)CCCN1C(=O)c1snnc1C (stereo not given),active: -51.1%
5,COc1cc(NC(=S)NNC(=O)CC(C)C)c(OC)cc1Cl,inconclusive: -45.8%
6,COc1ccc(COc2cccc(C=O)c2)cc1,inconclusive: -48.8%
7,NS(=O)(=O)c1ccc(S(=O)(=O)N2CCN(C3CCCC3)CC2)cc1,inactive: 3.1%
8,Cc1ccc2c(CN3CCC(C)CC3)cc(=O)oc2c1,active: -61.3%
9,Cc1cc2c(cc1C)-n1nnnc1C(N(C)CCc1ccccc1)C(=O)N2 (stereo not given),inactive: -3.53%
10,Cc1cc2oc(=O)cc(CN3CCc4ccccc43)c2cc1Cl,inconclusive: -31.8%
11,CCc1ccc2c(c1)CCCN2C(=O)c1ccccc1C(=O)O,active: -67.9%
12,Cc1oc(-c2ccc(Cl)cc2)cc1C(=O)NC1CCN(Cc2ccccc2)CC1,active: -65.1%
13,COc1ccccc1C(=O)NC(=O)COC(=O)C1CC1C (stereo not given),inconclusive: -48.9%
14,Cc1ccccc1Nc1n[nH]c(=S)s1,inconclusive: -48.3%
15,CCOc1ccccc1N=CC1=C(O)CC(c2ccccc2)CC1=O (stereo not given),inconclusive: -34.6%
16,O=C(CCCC(=O)NN=Cc1ccc(Cl)cc1Cl)NN=Cc1ccc(Cl)cc1Cl,inactive: 11.8%
17,CCCCCC(=O)Nc1ccc(Cc2ccncc2)cc1,inconclusive: -35.8%
18,C[C@H](CO)N1C[C@H](C)[C@@H](CN(C)C)Oc2c(NS(=O)(=O)c3ccc(F)cc3)cccc2C1=O,inconclusive: -37%
19,CCOc1ccc(CNC(=O)C2CCN(C(=O)N3CC(C)Oc4ccccc43)CC2)cc1 (stereo not given),inactive: 12.9%
20,Nc1nc(CN2CCN(c3cccc(Cl)c3)CC2)nc(N2CCCc3ccccc32)n1,active: -76.7%
21,COc1ccc(S(=O)(=O)N2CCOCC2)cc1NC(=O)CSc1cccc[n+]1[O-],inactive: 9.13%
22,O=C(Nc1cccc(Cl)c1)OCCOc1ccccc1,inactive: -0.52%
23,CC(C)Oc1ccc(CN2CCCC(CO)(Cc3ccc(F)cc3)C2)cc1 (stereo not given),inconclusive: -34.5%

row,Compound,"max response, negative = inhibition"
1,O=C(/C=C/Sc1ccc(C(F)(F)F)cn1)c1ccccc1,active: -68.9%
2,CC(C)Cc1ccc(CN2CCCC(NC(=O)c3ccnn3C)C2)cc1 (stereo not given),inactive: 9.99%
3,Cc1nn(CCC(=O)NNC(=S)Nc2ccccc2)c(C)c1Br,inactive: -15%
4,Cc1ccc2c(c1)Oc1ccc(NC(=O)CCl)cc1C(=O)N2,inconclusive: -33%
5,C[C@@H]1CCCCO[C@@H](CN(C)Cc2ccccc2)[C@@H](C)CN([C@H](C)CO)C(=O)c2cc(NC(=O)Nc3cccc4ccccc34)ccc2O1,inactive: 33.8%
6,O=C(N/N=C\c1ccc(Cl)s1)c1ccc(Cn2cccn2)o1,inactive: 0%
7,O=C(Nc1ccccn1)c1onc2c1CCCC2,inactive: 0%
8,CCCCNC(=O)C1(C)CCN1C(=O)c1cc(-c2ccccc2)cs1 (stereo not given),inactive: 16.7%
9,CCC(Oc1ccccc1)C(=O)Nc1cc(C)on1 (stereo not given),inactive: 0%
10,CCCNC(=O)COC(=O)c1ccc(-c2ccccc2)cc1,inconclusive: -32.4%
11,CCN1CCN(Cc2cccc(Oc3ccc(Cl)cc3)c2)CC1,active: -63.3%
12,CC(Sc1nnc(C2CC2)n1C1CC1)C(=O)Nc1ccc(C(N)=O)cc1 (stereo not given),inconclusive: -45.4%
13,Cc1ccc(C(=O)N2CCOCC2)cc1S(=O)(=O)N1CCCCC1,inactive: 3.53%
14,Cc1cccc(NC(=O)C2=C(O)c3ccccc3N(C)S2(=O)=O)c1,inconclusive: -34.3%
15,O=C(Nc1ccc(F)cc1)C(NC1CCCCC1)c1ccccc1 (stereo not given),inconclusive: -32.6%
16,O=C1OCCN1CCNCc1cn(-c2ccc(F)cc2)nc1-c1ccccc1Cl,inconclusive: -34.8%
17,COc1ccc(NC(=S)N(CCc2c(C)[nH]c3ccc(C)cc23)Cc2cccs2)cc1,inconclusive: -35.7%
18,CN1CCN(C2=C(Cl)C(=O)N(c3ccc(Cl)c(Cl)c3)C2=O)CC1,inconclusive: -47.7%
19,CCn1c(CCCNC(=O)c2ccc(F)cc2)nc2ccccc21,inconclusive: -38.8%
20,CCNc1nc(NC(C)(C)C)nc(SC(C(C)=O)C(C)=O)n1,inconclusive: -38.9%
21,Cc1cccc(-n2cnc(C(=O)N/N=C\c3ccc(Br)cc3)c2)n1,inconclusive: -35.4%
22,CC1CCN(CCOc2ccccc2-c2ccccc2)CC1,inconclusive: -44.1%
23,COc1ccc(/C=C2/CSC/C(=C/c3ccc(OC)c(OC)c3)C2=O)cc1OC,active: -50.2%

row,Compound,"max response, negative = inhibition"
1,Cc1ccccc1OCCCN1CCCC1,active: -59.8%
2,O=C(NCCN1CCC(n2c(=O)[nH]c3ccccc32)CC1)C(c1ccccc1)c1ccccc1,active: -78.3%
3,COc1ccc(S(=O)(=O)NC2CCCCC2)c(C)c1C,inconclusive: -42.9%
4,CN1CCN(C(c2ccc(C(F)(F)F)cc2)c2ccc3cccnc3c2O)CC1 (stereo not given),inconclusive: -37.5%
5,O=C(Nc1cccc(NC(=O)c2cccs2)c1)c1ccco1,inactive: -17.2%
6,O=C(NC(NC(=S)Nc1ccccc1Cl)C(Cl)(Cl)Cl)c1cccc(Cl)c1 (stereo not given),inconclusive: -47.3%
7,COC(=O)c1ccc(CN2C(=O)C(C)ON=C2c2ncccc2C)o1 (stereo not given),inconclusive: -37.8%
8,O=C(CNc1ccc2ccccc2c1)N/N=C/c1ccc([N+](=O)[O-])o1,inactive: 15.5%
9,Cc1cccc(OCC(=O)Nc2ccc3c(c2)nc(CN2CCCCC2)n3C)c1,active: -92.5%
10,O=C(NCCOc1ccccc1F)c1cc([N+](=O)[O-])ccc1N1CCOCC1,inactive: -14.4%
11,CCN(CC)CCN(CC)Cc1ccccc1Br,inconclusive: -31.8%
12,COC(=O)c1ccc(-n2ccnc2)cc1,inactive: -4.24%
13,CCc1ccc(NCc2ccc(OC)c(Cn3ccnc3)c2)cc1,inconclusive: -44.8%
14,CC(=O)N1c2ccc(S(=O)(=O)NCCC(=O)NC3CCCCCC3)cc2CC1C (stereo not given),inactive: 4.22%
15,O=C(O)/C=C/C(=O)N(Cc1ccccc1)Cc1ccco1,inactive: 8.14%
16,OC(COc1cccc2ccccc12)CN1CCN(c2ccccc2)CC1 (stereo not given),active: -54.4%
17,CCN(CC)CCN1CCN(c2cncc(-c3ccc4ccccc4c3)n2)CC1,inconclusive: -34.5%
18,CCN(C(=O)CSc1nnc2ccccn12)C1CCS(=O)(=O)C1 (stereo not given),inconclusive: -35.5%
19,O=C(C[C@H]1C[C@H](C(=O)N2CCOCC2)[C@@]2(CCC3CCCC3)c3[nH]c4cc(-c5ccco5)ccc4c3CCN2C1=O)NCc1cccc(C(F)(F)F)c1,inconclusive: -41.1%
20,CC(C)n1cnc2c(Nc3cccc(Cl)c3)nc(NCCCO)nc21,inconclusive: -31.9%
21,COc1cc2nc3n(c(=O)c2cc1OC)-c1cc2ccccc2cc1C(=O)NC3CC(C)C (stereo not given),inactive: 8.85%
22,N#Cc1ccc(Cl)cc1NC(=O)CN1C(=O)C(=O)N(CCC2=CCCCC2)C1=O,inconclusive: -42.1%
23,Cc1cc(C)n2nc(C(=O)N(C)c3c(N)n(Cc4ccccc4)c(=O)[nH]c3=O)nc2n1,inconclusive: -46.2%

# A different layout for part of the listing above:
row	Compound	max response, negative = inhibition
1	Cc1ccccc1OCCCN1CCCC1	active: -59.8%
2	O=C(NCCN1CCC(n2c(=O)[nH]c3ccccc32)CC1)C(c1ccccc1)c1ccccc1	active: -78.3%
3	COc1ccc(S(=O)(=O)NC2CCCCC2)c(C)c1C	inconclusive: -42.9%
4	CN1CCN(C(c2ccc(C(F)(F)F)cc2)c2ccc3cccnc3c2O)CC1 (stereo not given)	inconclusive: -37.5%
5	O=C(Nc1cccc(NC(=O)c2cccs2)c1)c1ccco1	inactive: -17.2%
6	O=C(NC(NC(=S)Nc1ccccc1Cl)C(Cl)(Cl)Cl)c1cccc(Cl)c1 (stereo not given)	inconclusive: -47.3%
7	COC(=O)c1ccc(CN2C(=O)C(C)ON=C2c2ncccc2C)o1 (stereo not given)	inconclusive: -37.8%
8	O=C(CNc1ccc2ccccc2c1)N/N=C/c1ccc([N+](=O)[O-])o1	inactive: 15.5%
9	Cc1cccc(OCC(=O)Nc2ccc3c(c2)nc(CN2CCCCC2)n3C)c1	active: -92.5%
10	O=C(NCCOc1ccccc1F)c1cc([N+](=O)[O-])ccc1N1CCOCC1	inactive: -14.4%
11	CCN(CC)CCN(CC)Cc1ccccc1Br	inconclusive: -31.8%
12	COC(=O)c1ccc(-n2ccnc2)cc1	inactive: -4.24%
13	CCc1ccc(NCc2ccc(OC)c(Cn3ccnc3)c2)cc1	inconclusive: -44.8%
14	CC(=O)N1c2ccc(S(=O)(=O)NCCC(=O)NC3CCCCCC3)cc2CC1C (stereo not given)	inactive: 4.22%
15	O=C(O)/C=C/C(=O)N(Cc1ccccc1)Cc1ccco1	inactive: 8.14%
16	OC(COc1cccc2ccccc12)CN1CCN(c2ccccc2)CC1 (stereo not given)	active: -54.4%
17	CCN(CC)CCN1CCN(c2cncc(-c3ccc4ccccc4c3)n2)CC1	inconclusive: -34.5%
18	CCN(C(=O)CSc1nnc2ccccn12)C1CCS(=O)(=O)C1 (stereo not given)	inconclusive: -35.5%

# (further entries)

row,Compound,"max response, negative = inhibition"
1,Cc1cc(NC(=O)CSc2nc3cc4c(cc3c(=O)n2CCc2ccccc2)OCO4)no1,active: -53%
2,O=C(NCc1ccco1)c1cc2cc3ccc(Cl)cc3nc2o1,inconclusive: -35%
3,Cc1ccc(O)c(N=Cc2cc(Cc3ccccc3)cc([N+](=O)[O-])c2O)c1,inconclusive: -35.4%
4,COC(=O)C(Cc1ccc(O)cc1)NC(=O)C(C)Oc1ccccc1 (stereo not given),inconclusive: -48.3%
5,COC(=O)c1ccccc1NC(=O)COC(=O)c1ccco1,inconclusive: -30.2%
6,CCCCN1CC(N2CCN(Cc3ccccc3)CC2)CS1(=O)=O (stereo not given),inconclusive: -41.6%
7,CN1CCC(N(C)C(=O)c2cc(-c3ccccc3Cl)nc3ccccc23)CC1,active: -59.5%
8,CC(C)CNC(=S)NC1CC2CCCC(C1)N2Cc1cccs1 (stereo not given),active: -76%
9,C(=C\c1ccccc1)/CN1CCN(C(c2ccnc3ccccc23)c2nnnn2C2CCCCC2)CC1 (stereo not given),inconclusive: -34.6%
10,Cc1cc(C)c(C(=O)/C=C/c2cccc3ccccc23)c(=O)[nH]1,inconclusive: -39.9%
11,CC(=O)C1=C(O)C(=O)N(Cc2cccnc2)C1c1ccc(Cl)cc1 (stereo not given),active: -50.3%
12,CC(C)CCNC(=O)c1onc(CSc2ccncc2)c1C(=O)NCCC(C)C,inconclusive: -35.4%
13,Cc1ccc(S(=O)(=O)NCc2cc(=O)n(C)c(=O)n2C)cc1C,inactive: -3.91%
14,O=C(CN1C(=O)NC2(CCCC2)C1=O)NCc1cccc(Cl)c1,inactive: -8.33%
15,COc1cccc(OC2(C)CCN(Cc3ccc(-c4ccccn4)cc3)C2)c1 (stereo not given),inconclusive: -49.9%
16,O=C(CCN1c2ccccc2Sc2ccccc21)Oc1ccccc1,inconclusive: -49.6%
17,N#Cc1c(N)nc(SC2CCCCC2=O)c(C#N)c1-c1ccco1 (stereo not given),inactive: -10.1%
18,CCOc1ccccc1-c1nc(-c2ccc(NC(=O)c3ccc(Br)o3)cc2)no1,inactive: 21.1%
19,COc1cc2c(cc1OC)C(C(=O)NCCN(C)C)C(c1cccs1)N(C)C2=O (stereo not given),inconclusive: -43.3%
20,O=C(CSc1nnc(COc2ccccc2)o1)c1ccccc1,inconclusive: -42%
21,CCN1C(=O)[C@H]2[C@@H](c3ccccc3)N[C@]3(CCCN(Cc4ccccc4)C3=O)[C@H]2C1=O,inactive: 6.17%
